This note sets out measurements from paper PMC8138766.

The test has as its target T1, Rav2-FLAG (yeast) (UniProt Q03956).
T1 sequence: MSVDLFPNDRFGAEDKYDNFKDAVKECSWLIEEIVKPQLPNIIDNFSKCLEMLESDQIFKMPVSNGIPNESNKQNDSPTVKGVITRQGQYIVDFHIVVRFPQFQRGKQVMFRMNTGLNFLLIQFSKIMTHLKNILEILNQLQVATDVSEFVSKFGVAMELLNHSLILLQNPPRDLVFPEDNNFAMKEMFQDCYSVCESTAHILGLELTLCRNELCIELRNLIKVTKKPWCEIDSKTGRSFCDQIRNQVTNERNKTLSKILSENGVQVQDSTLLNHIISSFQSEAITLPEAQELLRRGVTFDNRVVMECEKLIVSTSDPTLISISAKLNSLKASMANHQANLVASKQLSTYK
Description: co-IP; anti-FLAG M2 affinity column on cleared lysate of galactose-induced yeast (bait Rav2-FLAG), PBS or TBSE pH 7.4, elution with FLAG peptide; Coomassie SDS-PAGE and immunoblots for V1 subunits A, B and C. (In general: A western blot detects proteins with antibodies after separation by electrophoresis.)

No constants are given. Whether binding was seen depends on the method and setting. Binding seen in cells or lysates may run through a third protein. Binding calls can cover weak binding; strength is not graded here. Tags and fused reporters may be left off the sequences shown.

Consider “V1 subcomplex of the V-ATPase (cytosolic V1 complex) (yeast (endogenous))”, for which the binding result is “binds”.
